In publication PMC5572705:
These are yes or no findings as the source states them, for the method shown. Binding seen in cells or lysates may run through a third protein. Some results given as binding are weak or reduced against the parent protein; the word gives no strength.

By UniProt entry, the sequences of proteins in these tests, tags left out.
UniProt Q13547: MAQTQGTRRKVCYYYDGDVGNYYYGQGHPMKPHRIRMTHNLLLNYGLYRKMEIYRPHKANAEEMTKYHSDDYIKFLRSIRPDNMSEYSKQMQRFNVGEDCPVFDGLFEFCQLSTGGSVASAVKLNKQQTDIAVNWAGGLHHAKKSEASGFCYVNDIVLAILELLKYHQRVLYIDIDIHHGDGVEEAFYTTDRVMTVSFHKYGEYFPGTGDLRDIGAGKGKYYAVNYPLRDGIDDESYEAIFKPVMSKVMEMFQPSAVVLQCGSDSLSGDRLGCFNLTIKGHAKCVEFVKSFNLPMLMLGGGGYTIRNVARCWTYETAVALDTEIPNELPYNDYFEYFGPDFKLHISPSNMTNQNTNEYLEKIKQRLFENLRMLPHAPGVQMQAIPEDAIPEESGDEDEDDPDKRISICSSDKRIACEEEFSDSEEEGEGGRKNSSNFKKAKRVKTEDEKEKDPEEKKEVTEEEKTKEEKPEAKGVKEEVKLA
UniProt P51531: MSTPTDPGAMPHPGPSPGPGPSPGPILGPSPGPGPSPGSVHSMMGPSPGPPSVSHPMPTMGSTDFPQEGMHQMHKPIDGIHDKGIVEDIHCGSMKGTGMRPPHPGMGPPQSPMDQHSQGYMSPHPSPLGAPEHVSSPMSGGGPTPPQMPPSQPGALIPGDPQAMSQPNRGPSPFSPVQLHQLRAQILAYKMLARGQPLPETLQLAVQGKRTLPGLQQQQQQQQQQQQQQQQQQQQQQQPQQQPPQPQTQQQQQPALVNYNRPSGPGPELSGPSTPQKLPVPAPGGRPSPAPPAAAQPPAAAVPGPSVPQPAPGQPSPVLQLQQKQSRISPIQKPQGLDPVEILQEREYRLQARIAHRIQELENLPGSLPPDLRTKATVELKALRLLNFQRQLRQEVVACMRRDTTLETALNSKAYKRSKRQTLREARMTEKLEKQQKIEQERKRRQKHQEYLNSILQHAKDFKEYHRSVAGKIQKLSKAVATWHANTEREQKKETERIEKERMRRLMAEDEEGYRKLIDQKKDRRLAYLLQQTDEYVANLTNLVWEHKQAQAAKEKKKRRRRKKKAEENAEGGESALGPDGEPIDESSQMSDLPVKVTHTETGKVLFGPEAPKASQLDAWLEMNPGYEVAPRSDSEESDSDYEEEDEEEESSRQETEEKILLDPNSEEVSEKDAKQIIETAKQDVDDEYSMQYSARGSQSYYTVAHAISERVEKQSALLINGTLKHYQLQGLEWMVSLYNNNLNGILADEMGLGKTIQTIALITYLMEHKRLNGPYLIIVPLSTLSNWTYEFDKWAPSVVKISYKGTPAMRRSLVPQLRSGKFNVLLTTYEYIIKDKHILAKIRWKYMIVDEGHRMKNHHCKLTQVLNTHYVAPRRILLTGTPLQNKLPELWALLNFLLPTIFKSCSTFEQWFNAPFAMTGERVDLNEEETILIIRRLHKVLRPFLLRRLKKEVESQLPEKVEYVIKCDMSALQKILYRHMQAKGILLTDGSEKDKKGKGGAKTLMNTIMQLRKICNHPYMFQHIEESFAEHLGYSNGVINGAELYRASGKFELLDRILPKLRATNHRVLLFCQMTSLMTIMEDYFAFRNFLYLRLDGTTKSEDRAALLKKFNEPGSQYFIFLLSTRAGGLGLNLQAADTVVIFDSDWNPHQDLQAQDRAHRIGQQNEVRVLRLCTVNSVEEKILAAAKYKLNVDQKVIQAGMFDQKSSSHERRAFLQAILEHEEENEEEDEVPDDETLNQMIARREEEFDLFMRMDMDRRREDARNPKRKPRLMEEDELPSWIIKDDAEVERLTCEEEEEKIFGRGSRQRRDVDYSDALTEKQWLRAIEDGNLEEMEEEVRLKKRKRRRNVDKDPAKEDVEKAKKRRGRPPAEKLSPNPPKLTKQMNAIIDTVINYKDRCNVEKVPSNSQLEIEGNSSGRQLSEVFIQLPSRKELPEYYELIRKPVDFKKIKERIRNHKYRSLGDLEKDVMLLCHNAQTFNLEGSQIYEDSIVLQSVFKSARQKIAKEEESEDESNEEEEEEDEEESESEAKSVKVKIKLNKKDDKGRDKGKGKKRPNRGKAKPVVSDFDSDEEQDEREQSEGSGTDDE
UniProt P51532: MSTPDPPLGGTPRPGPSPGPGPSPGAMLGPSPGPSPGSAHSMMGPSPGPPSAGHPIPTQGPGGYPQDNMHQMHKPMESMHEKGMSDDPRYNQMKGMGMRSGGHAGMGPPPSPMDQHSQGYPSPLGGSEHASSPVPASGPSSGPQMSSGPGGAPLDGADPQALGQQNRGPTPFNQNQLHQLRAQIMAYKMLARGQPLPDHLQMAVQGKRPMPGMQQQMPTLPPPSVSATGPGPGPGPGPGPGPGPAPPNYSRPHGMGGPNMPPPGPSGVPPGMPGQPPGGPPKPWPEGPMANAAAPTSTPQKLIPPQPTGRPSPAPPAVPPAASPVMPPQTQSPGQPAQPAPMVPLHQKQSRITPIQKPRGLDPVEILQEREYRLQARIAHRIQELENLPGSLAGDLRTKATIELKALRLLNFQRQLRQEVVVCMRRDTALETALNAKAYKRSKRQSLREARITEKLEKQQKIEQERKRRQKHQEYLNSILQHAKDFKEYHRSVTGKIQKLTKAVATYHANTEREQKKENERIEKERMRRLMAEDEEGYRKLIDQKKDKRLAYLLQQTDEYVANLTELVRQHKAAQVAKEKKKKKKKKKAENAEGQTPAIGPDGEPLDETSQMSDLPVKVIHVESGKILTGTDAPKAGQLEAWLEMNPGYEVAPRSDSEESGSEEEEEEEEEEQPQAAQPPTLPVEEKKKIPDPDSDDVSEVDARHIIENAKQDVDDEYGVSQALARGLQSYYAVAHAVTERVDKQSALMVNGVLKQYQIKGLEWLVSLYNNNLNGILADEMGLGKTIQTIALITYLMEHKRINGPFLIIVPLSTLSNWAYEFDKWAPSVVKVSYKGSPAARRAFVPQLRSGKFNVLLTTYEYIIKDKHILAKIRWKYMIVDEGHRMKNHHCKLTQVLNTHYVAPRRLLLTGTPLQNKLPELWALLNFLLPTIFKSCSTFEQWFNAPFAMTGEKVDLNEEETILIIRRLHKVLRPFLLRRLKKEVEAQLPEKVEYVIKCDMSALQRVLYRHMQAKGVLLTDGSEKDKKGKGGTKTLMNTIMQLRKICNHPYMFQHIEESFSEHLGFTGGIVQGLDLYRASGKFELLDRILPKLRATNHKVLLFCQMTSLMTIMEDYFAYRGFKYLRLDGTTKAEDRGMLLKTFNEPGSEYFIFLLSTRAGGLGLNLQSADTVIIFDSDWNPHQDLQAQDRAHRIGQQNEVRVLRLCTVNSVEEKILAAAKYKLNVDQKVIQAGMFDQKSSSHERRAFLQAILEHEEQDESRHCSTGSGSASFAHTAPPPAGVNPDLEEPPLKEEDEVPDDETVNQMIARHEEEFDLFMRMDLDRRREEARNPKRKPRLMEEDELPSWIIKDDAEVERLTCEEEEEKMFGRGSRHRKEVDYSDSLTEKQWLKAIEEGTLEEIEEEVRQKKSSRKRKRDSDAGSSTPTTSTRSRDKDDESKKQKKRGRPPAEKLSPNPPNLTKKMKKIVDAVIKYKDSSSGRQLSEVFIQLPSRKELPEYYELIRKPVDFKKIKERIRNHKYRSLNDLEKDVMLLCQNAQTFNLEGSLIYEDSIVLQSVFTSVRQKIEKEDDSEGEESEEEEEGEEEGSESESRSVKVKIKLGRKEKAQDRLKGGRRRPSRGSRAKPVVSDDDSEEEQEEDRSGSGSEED
UniProt Q16254: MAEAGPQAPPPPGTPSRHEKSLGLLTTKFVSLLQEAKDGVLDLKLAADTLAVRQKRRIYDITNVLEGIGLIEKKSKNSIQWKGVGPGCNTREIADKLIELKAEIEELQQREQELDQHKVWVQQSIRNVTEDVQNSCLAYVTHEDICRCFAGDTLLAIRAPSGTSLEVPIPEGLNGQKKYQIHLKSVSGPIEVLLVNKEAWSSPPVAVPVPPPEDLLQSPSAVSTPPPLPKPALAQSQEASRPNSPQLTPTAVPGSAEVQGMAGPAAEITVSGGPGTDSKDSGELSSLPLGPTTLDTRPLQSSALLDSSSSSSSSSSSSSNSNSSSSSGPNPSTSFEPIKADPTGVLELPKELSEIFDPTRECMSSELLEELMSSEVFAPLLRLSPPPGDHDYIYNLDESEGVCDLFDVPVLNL
UniProt Q08999: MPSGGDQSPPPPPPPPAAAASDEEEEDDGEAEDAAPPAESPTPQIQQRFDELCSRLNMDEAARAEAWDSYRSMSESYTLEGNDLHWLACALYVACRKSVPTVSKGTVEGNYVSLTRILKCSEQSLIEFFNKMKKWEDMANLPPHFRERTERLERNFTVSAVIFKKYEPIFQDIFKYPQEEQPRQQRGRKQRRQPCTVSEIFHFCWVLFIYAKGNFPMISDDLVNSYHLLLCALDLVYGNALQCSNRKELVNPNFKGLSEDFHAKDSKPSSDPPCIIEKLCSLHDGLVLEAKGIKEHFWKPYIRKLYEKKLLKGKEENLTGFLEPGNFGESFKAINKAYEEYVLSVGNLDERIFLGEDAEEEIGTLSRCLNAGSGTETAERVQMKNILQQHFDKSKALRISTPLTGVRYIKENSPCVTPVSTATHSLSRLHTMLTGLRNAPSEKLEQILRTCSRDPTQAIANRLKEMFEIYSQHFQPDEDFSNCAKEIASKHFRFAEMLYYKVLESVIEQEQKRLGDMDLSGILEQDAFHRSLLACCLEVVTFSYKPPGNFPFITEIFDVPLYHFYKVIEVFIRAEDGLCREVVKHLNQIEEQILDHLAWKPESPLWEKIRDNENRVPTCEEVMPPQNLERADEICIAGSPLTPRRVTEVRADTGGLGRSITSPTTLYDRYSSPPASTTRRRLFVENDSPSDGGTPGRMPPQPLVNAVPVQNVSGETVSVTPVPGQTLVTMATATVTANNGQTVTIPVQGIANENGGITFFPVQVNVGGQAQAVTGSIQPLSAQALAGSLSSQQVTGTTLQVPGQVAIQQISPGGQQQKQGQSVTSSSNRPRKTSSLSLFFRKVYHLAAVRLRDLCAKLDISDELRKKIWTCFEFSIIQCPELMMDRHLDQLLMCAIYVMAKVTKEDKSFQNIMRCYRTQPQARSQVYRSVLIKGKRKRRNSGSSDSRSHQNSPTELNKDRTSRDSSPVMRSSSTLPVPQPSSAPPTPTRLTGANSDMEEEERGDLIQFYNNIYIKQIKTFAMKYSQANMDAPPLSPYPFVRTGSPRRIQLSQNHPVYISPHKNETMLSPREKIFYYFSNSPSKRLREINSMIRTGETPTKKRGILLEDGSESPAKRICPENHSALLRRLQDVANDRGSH

Molecular target: HDAC1 (histone deacetylase-1) (human (endogenous in THP-1)) (UniProt Q13547)
Assay: co-IP; 1 mg total cell lysate in IP buffer (20 mM HEPES pH 7.9, 75 mM KCl, 2.5 mM MgCl2, 0.1% NP-40) with 5 ug anti-HDAC1 rabbit antibody, 4 C, 3 h; Dynabeads Protein G; five washes; western blot of co-precipitated proteins; cells differentiated (Fig. 3i) or arrested in G1 with mimosine (Fig. 4j)

binding, binds:
BRM (SWI/SNF) (from UniProt P51531 1-1590) (enzyme)
BRG1 (SWI/SNF) (from UniProt P51532 1-1647) (enzyme)
E2F4 (from UniProt Q16254 1-413)
RBL2/p130 (from UniProt Q08999 1-1139)
